This passage reports binding signal results from PMC7862700.

Chains of the proteins cited; added tags and fusions are not shown. Lines headed by an entry give the natural chain unless they say otherwise; changes in a name come on top.
UniProt Q01892: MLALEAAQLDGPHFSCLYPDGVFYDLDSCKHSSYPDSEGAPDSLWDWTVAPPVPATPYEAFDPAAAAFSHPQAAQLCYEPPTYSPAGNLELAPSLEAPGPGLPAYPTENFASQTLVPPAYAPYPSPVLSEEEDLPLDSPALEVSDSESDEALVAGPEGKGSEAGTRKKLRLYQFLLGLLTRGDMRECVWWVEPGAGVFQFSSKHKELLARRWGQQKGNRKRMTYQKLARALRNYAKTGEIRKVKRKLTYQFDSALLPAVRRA
UniProt Q99607: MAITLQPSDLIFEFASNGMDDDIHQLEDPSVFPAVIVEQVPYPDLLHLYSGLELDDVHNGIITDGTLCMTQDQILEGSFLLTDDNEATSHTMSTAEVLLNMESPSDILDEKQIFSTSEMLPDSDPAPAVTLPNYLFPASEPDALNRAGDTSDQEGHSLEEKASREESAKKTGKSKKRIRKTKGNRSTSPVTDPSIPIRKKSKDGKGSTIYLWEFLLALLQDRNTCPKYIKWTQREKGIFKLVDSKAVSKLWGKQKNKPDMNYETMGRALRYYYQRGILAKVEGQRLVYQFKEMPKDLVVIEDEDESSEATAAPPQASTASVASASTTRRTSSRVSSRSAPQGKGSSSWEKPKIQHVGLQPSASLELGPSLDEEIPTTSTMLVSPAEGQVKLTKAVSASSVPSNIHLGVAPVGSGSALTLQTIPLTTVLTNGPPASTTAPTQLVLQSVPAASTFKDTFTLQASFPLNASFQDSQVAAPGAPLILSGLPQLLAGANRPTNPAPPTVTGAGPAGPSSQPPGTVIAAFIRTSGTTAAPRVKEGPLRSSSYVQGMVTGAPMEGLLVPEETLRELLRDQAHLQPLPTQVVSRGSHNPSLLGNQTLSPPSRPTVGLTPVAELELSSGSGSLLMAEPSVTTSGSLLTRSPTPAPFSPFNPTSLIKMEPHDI

Only a part is listed here, and it is no random draw. At the low end of the ranking, values are background and their order means little.

For one assay, the target named is T1, FLI1 (UniProt Q01543).
T1 sequence: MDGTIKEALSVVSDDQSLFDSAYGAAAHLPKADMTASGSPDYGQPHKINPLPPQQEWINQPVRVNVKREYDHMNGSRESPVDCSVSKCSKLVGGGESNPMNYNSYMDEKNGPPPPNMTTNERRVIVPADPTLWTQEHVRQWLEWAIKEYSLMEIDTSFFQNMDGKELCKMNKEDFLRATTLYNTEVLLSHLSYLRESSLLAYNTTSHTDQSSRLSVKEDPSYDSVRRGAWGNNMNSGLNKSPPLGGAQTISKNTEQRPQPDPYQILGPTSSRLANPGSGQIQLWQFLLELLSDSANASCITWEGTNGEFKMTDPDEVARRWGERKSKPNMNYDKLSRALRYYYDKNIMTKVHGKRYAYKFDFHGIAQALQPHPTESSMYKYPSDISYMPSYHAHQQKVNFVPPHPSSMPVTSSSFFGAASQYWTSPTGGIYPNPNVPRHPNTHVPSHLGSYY
Nature of the assay: DAPPL (digital affinity profiling via proximity ligation, sequencing). The note with it: 10 mM Tris-HCl pH 7.5, 50 mM NaCl, 1 mM DTT, 4% glycerol, room temperature, 30 min; GST-TFs on glutathione beads, 16-mer random dsDNA library, 0.1% …; high values mean tight binding; double strand, one strand shown; scale: fold enrichment (6-mer frequency, TF over GST control).
ACTGTA: the binding signal was determined as 1.
For the sequence GTATCT, the binding signal is 1.23.
Sequence CAAATG returned a binding signal of 1.11.
Still for that read-out and setting: as for TGCGGA, the figure is 1.35; as for TTTTTG, 1.43; as for GTACAA, 1.05.
On the same count and under the same terms, as for ACCCAA, the figure is 1.12; as for AAACAC, 1.25; as for ATAATC, 1.17.
Same read-out and setting: the same measure for TAATAT: 1.36; for TCTCTC: 1.37.
As for TTTCAC, the binding signal turned out to be 1.39.
In turn, TCCTGT registered a binding signal of 1.8.
Sequence CATACA came in with a binding signal of 1.11.
The same measure, in the same setting: the same measure for GCATTT: 1.38; for GGTTAT: 1.07.
As for TCCTGA, the binding signal amounted to 1.43.
As to TAGTGC, the binding signal was 1.05.
Still for that read-out and setting: as for AGGTCT, the figure is 1.31.
The same measure, in the same setting: as for CATGCA, the figure is 1.1.
Still for that read-out and setting: the same measure for TGCCTC: 1.39.
Take GATGCG: the binding signal stood at 1.07.
For ATCCCA, the binding signal came to 1.07.
Same read-out and setting: the same measure for GGACTT: 0.988; for AACGCA: 0.997; for CCCACT: 1.36.
With CTCCGT, the binding signal came out at 1.32.
Still for that read-out and setting: as for AGTACC, the figure is 0.903; as for CGTTTC, 1.76.
The same measure, in the same setting: as for CCTATA, the figure is 1.35; as for ACTGGT, 0.981; as for AAATCA, 1.12.
Still for that read-out and setting: as for ACCCCC, the figure is 1.17.
For CATAGC, the binding signal amounted to 0.968.
The same measure, in the same setting: as for ACTAGG, the figure is 1.03; as for ACTTCG, 1.38.
Same read-out and setting: the same measure for CACGCG: 1.32; for CTAGTA: 1.08; for TTTCCA: 1.37.

In another assay the target is T2, EHF (UniProt Q9NZC4).
T2 sequence: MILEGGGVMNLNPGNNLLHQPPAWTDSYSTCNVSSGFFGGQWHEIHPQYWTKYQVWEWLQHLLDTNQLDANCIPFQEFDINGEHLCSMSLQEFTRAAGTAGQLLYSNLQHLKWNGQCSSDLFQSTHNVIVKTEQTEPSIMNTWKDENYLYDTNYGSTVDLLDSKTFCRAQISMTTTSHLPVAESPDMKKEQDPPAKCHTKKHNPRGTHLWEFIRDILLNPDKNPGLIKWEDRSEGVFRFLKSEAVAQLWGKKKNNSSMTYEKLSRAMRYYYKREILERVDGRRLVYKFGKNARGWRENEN
Described as above. The note with it: 10 mM Tris-HCl pH 7.5, 50 mM NaCl, 1 mM DTT, 4% glycerol, room temperature, 30 min; GST-TFs on glutathione beads, 16-mer random dsDNA library, 0.1% …; high values mean tight binding; double strand, one strand shown; scale: fold enrichment (6-mer frequency, TF over GST control).
The sequence ACTGTA gave a binding signal of 1.11.
The same measure, in the same setting: the same measure for GTATCT: 1.09.
In the case of CAAATG, the binding signal stood at 1.1.
The sequence TGCGGA registered a binding signal of 1.37.
The sequence TTTTTG gave a binding signal of 1.27.
Same read-out and setting: the same measure for GTACAA: 1.26.
Same read-out and setting: the same measure for ACCCAA: 0.979; for ATAATC: 1.14.
TAATAT returned a binding signal of 1.3.
The same measure, in the same setting: as for TCTCTC, the figure is 1.36.
Same read-out and setting: as for TTTCAC, the figure is 1.3; as for TCCTGT, 1.67; as for TCCTGA, 1.45.
Still for that read-out and setting: as for TAGTGC, the figure is 0.987; as for TGCCTC, 1.26.
GGACTT had a binding signal of 1.11.
Still for that read-out and setting: as for AACGCA, the figure is 1.04.
The same measure, in the same setting: as for AGTACC, the figure is 0.975; as for CCTATA, 1.28; as for ACTGGT, 0.968.
Still for that read-out and setting: the same measure for AAATCA: 1.25; for CTAGTA: 1.08.

In a further assay the target is SPIB (UniProt Q01892). The assay is described as above. Conditions: 10 mM Tris-HCl pH 7.5, 50 mM NaCl, 1 mM DTT, 4% glycerol, room temperature, 30 min; GST-TFs on glutathione beads, 16-mer random dsDNA library, 0.1% …; high values mean tight binding; double strand, one strand shown; scale: fold enrichment (6-mer frequency, TF over GST control).
Sequence ACTGTA yielded a binding signal of 0.963.
GTATCT yielded a binding signal of 1.25.
Still for that read-out and setting: the same measure for CAAATG: 1.13.
As to TGCGGA, the binding signal was 1.29.
ACCCAA yielded a binding signal of 1.08.
Still for that read-out and setting: the same measure for AAACAC: 1.27.
TAATAT displayed a binding signal of 1.21.
CATACA returned a binding signal of 1.08.
Sequence GGTTAT gave a binding signal of 0.999.
On the same count and under the same terms, as for TCCTGA, the figure is 1.46; as for TAGTGC, 1.03; as for AGGTCT, 1.22.
On the same count and under the same terms, the same measure for CATGCA: 1.07.
On the same count and under the same terms, as for GATGCG, the figure is 1.19.
As for ATCCCA, the binding signal amounted to 1.05.
Regarding CCCACT, the binding signal came to 1.26.
Sequence CTCCGT came in with a binding signal of 1.13.
On the same count and under the same terms, as for AGTACC, the figure is 0.965; as for CCTATA, 1.34.
Same read-out and setting: as for ACCCCC, the figure is 1.21; as for CATAGC, 0.969; as for ACTAGG, 0.998.
Turning to ACTTCG, the binding signal was determined as 1.39.
Still for that read-out and setting: the same measure for CTAGTA: 1.1.
Same read-out and setting: as for TTTCCA, the figure is 1.39.

In the next assay the target is ELF4 (UniProt Q99607). Described as above. The note with it: 10 mM Tris-HCl pH 7.5, 50 mM NaCl, 1 mM DTT, 4% glycerol, room temperature, 30 min; GST-TFs on glutathione beads, 16-mer random dsDNA library, 0.1% …; high values mean tight binding; double strand, one strand shown; scale: fold enrichment (6-mer frequency, TF over GST control).
As to ACTGTA, the binding signal amounted to 0.996.
Still for that read-out and setting: as for GTATCT, the figure is 1.14; as for CAAATG, 1.15; as for TGCGGA, 1.24.
TTTTTG registered a binding signal of 1.45.
GTACAA: the binding signal is 1.09.
Still for that read-out and setting: the same measure for ACCCAA: 1.18.
Same read-out and setting: as for AAACAC, the figure is 1.34.
On the same count and under the same terms, the same measure for ATAATC: 1.13; for TAATAT: 1.28.
In turn, TCTCTC displayed a binding signal of 1.44.
TTTCAC displayed a binding signal of 1.43.
Same read-out and setting: as for TCCTGT, the figure is 1.65.
Take CATACA: the binding signal was found to be 1.15.
Still for that read-out and setting: the same measure for GGTTAT: 0.95.
On the same count and under the same terms, the same measure for TCCTGA: 1.39.
Turning to TAGTGC, the binding signal is 0.991.
Same read-out and setting: as for AGGTCT, the figure is 1.2.
Regarding CATGCA, the binding signal was 1.11.
The same measure, in the same setting: the same measure for TGCCTC: 1.34.
On the same count and under the same terms, as for GATGCG, the figure is 1.14; as for ATCCCA, 1.1.
In the case of GGACTT, the binding signal was 1.09.
As to AACGCA, the binding signal worked out at 0.972.
The sequence CCCACT came in with a binding signal of 1.43.
For CTCCGT, the binding signal amounted to 1.3.
AGTACC came in with a binding signal of 0.963.
Same read-out and setting: as for CCTATA, the figure is 1.29; as for ACTGGT, 1.07; as for AAATCA, 1.24.
On the same count and under the same terms, as for ACCCCC, the figure is 1.2.
With CATAGC, the binding signal was 0.998.
The same measure, in the same setting: as for ACTAGG, the figure is 0.998; as for ACTTCG, 1.47.
Still for that read-out and setting: the same measure for CTAGTA: 1.07; for TTTCCA: 1.39.
